Among the data in article PMC2923778 (Journal of Molecular Biology, 2010) are binding values, retold here.

Results are given in words; binding and its absence hold for the method and conditions named.

The target in this experiment is mSPSB1ΔSB (murine). In words: ITC; 100 μM peptide titrated into 10 μM mSPSB protein; 22 °C; 20 mM Tris, 150 mM sodium chloride, 2.5 mM calcium chloride, pH 8.0; single binding site model; both purified. (ITC needs no label: the signal is the heat of the interaction.)

B1: [N70A]hPar-4(64–77) (peptide)
peptide: AAANELANNLPGGA
notes: human prostate apoptosis response protein-4 (hPar-4), residues 64-77, N70A; source: synthetic peptide (GenScript Corporation)
B1: the binding entry was “no binding (tested: Kd > 50 μM)”.

B2: [N71A]hPar-4(64–77) (peptide)
peptide: AAANELNANLPGGA
notes: human prostate apoptosis response protein-4 (hPar-4), residues 64-77, N71A; source: synthetic peptide (GenScript Corporation)
As for B2, the binding entry is reported as “no binding (tested: Kd > 50 μM)”.
